Test results taken from article PMC12431501.
Results are given in words; binding and its absence hold for the method and conditions named.

T1: OsS1Fa1 (site 1 binding factor a1) (rice (Oryza sativa)) (UniProt P42553)
T1 sequence: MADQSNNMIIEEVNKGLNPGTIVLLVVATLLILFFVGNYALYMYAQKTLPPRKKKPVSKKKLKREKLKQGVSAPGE

T2: OsMIF2 (mini zinc finger 2) (rice (Oryza sativa)) (UniProt B9GBM3)
T2 sequence: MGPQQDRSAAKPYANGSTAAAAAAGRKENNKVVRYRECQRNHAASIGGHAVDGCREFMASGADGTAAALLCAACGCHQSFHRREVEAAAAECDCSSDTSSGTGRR

T3: OsS1Fa2 (site 1 binding factor a2) (rice (Oryza sativa)) (UniProt Q7XLX6)
T3 sequence: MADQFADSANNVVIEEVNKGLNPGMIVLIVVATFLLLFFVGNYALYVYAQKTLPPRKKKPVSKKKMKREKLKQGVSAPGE

T4: OsMIF1 (mini zinc finger 1) (rice (Oryza sativa)) (UniProt Q2RB28)
T4 sequence: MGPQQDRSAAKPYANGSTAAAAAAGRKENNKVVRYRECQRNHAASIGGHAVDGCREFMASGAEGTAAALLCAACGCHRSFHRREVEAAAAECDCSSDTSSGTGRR

T5: OsbZIP58 (bZIP transcription factor 58) (rice (Oryza sativa)) (UniProt Q6ZLB0)
T5 sequence: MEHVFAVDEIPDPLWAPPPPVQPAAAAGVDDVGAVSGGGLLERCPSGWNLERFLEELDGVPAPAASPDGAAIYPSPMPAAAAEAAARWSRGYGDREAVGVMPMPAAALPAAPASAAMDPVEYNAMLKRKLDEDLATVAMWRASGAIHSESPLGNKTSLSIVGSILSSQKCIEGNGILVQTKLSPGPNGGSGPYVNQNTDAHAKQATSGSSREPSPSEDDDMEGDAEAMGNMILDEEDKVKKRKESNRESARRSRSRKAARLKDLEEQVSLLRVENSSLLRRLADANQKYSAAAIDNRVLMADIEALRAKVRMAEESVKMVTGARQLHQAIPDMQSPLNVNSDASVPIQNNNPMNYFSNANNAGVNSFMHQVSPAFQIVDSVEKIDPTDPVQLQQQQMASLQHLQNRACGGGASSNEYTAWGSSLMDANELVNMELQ

B1: OsMIF1 (mini zinc finger 1) (protein, UniProt Q2RB28 1-105)
chain: MGPQQDRSAAKPYANGSTAAAAAAGRKENNKVVRYRECQRNHAASIGGHAVDGCREFMASGAEGTAAALLCAACGCHRSFHRREVEAAAAECDCSSDTSSGTGRR
B2: OsMIF2 (mini zinc finger 2) (protein, UniProt B9GBM3 1-105)
chain: MGPQQDRSAAKPYANGSTAAAAAAGRKENNKVVRYRECQRNHAASIGGHAVDGCREFMASGADGTAAALLCAACGCHQSFHRREVEAAAAECDCSSDTSSGTGRR
B3: OsbZIP58 (bZIP transcription factor 58) (protein, UniProt Q6ZLB0 1-436)
chain: MEHVFAVDEIPDPLWAPPPPVQPAAAAGVDDVGAVSGGGLLERCPSGWNLERFLEELDGVPAPAASPDGAAIYPSPMPAAAAEAAARWSRGYGDREAVGVMPMPAAALPAAPASAAMDPVEYNAMLKRKLDEDLATVAMWRASGAIHSESPLGNKTSLSIVGSILSSQKCIEGNGILVQTKLSPGPNGGSGPYVNQNTDAHAKQATSGSSREPSPSEDDDMEGDAEAMGNMILDEEDKVKKRKESNRESARRSRSRKAARLKDLEEQVSLLRVENSSLLRRLADANQKYSAAAIDNRVLMADIEALRAKVRMAEESVKMVTGARQLHQAIPDMQSPLNVNSDASVPIQNNNPMNYFSNANNAGVNSFMHQVSPAFQIVDSVEKIDPTDPVQLQQQQMASLQHLQNRACGGGASSNEYTAWGSSLMDANELVNMELQ
B4: OsS1Fa1 (site 1 binding factor a1) (protein, UniProt P42553 1-76)
chain: MADQSNNMIIEEVNKGLNPGTIVLLVVATLLILFFVGNYALYMYAQKTLPPRKKKPVSKKKLKREKLKQGVSAPGE
B5: OsS1Fa2 (site 1 binding factor a2) (protein, UniProt Q7XLX6 1-80)
chain: MADQFADSANNVVIEEVNKGLNPGMIVLIVVATFLLLFFVGNYALYVYAQKTLPPRKKKPVSKKKMKREKLKQGVSAPGE

Experiments:
Assay in all cases: two-hybrid; ProQuest Two-Hybrid System with Gateway Technology; full-length cDNAs in bait (pDEST32) and prey (pDEST22) vectors; yeast strain MaV203
[1] = target: T1, OsS1Fa1 (site 1 binding factor a1) (rice (Oryza sativa))
[2] = target: T2, OsMIF2 (mini zinc finger 2) (rice (Oryza sativa))
[3] = target: T3, OsS1Fa2 (site 1 binding factor a2) (rice (Oryza sativa))
[4] = target: T4, OsMIF1 (mini zinc finger 1) (rice (Oryza sativa))
[5] = target: T5, OsbZIP58 (bZIP transcription factor 58) (rice (Oryza sativa))
[6] = target: OsGZF1 (GluB-1-binding Zinc Finger 1) (rice (Oryza sativa))
[7] = target: OsMYB24 (R2R3-MYB transcription factor 24) (rice (Oryza sativa))
[8] = target: OsICE2 (Inducer of CBF expression 2) (rice (Oryza sativa))

Molecule | binding [1] | binding [2] | binding [3] | binding [4] | binding [5] | binding [6] | binding [7] | binding [8]
OsGATA8 (GATA transcription factor 8) (rice (Oryza sativa)) | no binding | no binding | no binding | no binding | no binding | – | – | –
OsGZF1 (GluB-1-binding Zinc Finger 1) (rice (Oryza sativa)) | no binding | – | no binding | – | no binding | – | – | –
B1 | – | – | – | – | – | no binding | no binding | no binding
B2 | – | – | – | – | – | no binding | no binding | no binding
B3 | – | – | – | – | – | – | no binding | no binding
B4 | – | – | – | – | – | – | no binding | no binding
B5 | – | – | – | – | – | – | no binding | no binding
